For at least one compound, name, drawing or mass did not settle the structure.
Test system: heterotrophic microbial biofilm
Test: Biofilm eradication in PBR (photobioreactor), released CFU's
Type: cell-based
Details: highest dosage(s) added
Protocol: In order to determine the anti-biofilm effect of PTSO, PTS and DPD (dipropyl disulfide), a biofilm was grown under controlled conditions in a glass tube reactor, the PBR. A photobioreactor was used as model system because biofilm formation was clearly visible in the glass tubes. After a mature biofilm was formed, increasing levels of pure PTSO, PTS or DPD were added and the biofilm was removed by titration of pure PTSO, PTS or DPD and the dosages were determined that the biofilm was eradicated. Hereafter, the microbial composition was determined of the biofilm by deep sequencing.
Heterotrophic microbial biofilm: a biofilm was cultivated in a 26.5-liter glass photobioreactor (PBR) with a tube length of 37-meter incl. bends (the GemTube RD-25 Glass of LGEM). […]
The numbers of aerobic, anaerobic/micro-aerophilic and fungal CFU's in the biofilm and supernatant were determined according to standard operating procedures as follows: for aerobic colony forming units per ml (CFU/ml) see https://www.iso.org/standard/53728.html; for the determination of anaerobic CFU's/ml see https://www.thermofisher.com/order/catalog/product/AN0025A#HAN0025A (the plates are incubated in an oxygen-free container) and with respect to the numbers of colony forming unites for fungi see http://edgeanalytical.com/wp-content/uploads/Food_AOAC-997.02.pdf (see Table 2). […]

CCCSS(=O)(=O)CCC (single isomer, unassigned) [PTSO, propyl-propane thiosulfonate]
state of the biofilm at the highest dosages (visual): nearly completely degraded
